Measured values taken from the supplement of paper PMC10849652.
This is one part of the list. Residues, ends and D or L forms follow the SMILES beside them. *: point of attachment. Cbz = O=C(OCc1ccccc1)*

By UniProt entry, the sequences of proteins in these tests, tags left out. Where a name states a change or a piece, a line headed by the entry shows the natural chain unless it says otherwise.
UniProt P62304, whole entry, looked up: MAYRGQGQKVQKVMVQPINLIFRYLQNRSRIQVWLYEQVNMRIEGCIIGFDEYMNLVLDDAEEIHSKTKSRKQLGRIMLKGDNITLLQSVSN
UniProt O95295: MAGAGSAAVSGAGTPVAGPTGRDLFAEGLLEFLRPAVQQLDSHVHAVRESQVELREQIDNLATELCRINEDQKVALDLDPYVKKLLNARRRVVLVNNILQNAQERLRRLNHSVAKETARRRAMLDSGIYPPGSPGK
UniProt Q9Y5W7: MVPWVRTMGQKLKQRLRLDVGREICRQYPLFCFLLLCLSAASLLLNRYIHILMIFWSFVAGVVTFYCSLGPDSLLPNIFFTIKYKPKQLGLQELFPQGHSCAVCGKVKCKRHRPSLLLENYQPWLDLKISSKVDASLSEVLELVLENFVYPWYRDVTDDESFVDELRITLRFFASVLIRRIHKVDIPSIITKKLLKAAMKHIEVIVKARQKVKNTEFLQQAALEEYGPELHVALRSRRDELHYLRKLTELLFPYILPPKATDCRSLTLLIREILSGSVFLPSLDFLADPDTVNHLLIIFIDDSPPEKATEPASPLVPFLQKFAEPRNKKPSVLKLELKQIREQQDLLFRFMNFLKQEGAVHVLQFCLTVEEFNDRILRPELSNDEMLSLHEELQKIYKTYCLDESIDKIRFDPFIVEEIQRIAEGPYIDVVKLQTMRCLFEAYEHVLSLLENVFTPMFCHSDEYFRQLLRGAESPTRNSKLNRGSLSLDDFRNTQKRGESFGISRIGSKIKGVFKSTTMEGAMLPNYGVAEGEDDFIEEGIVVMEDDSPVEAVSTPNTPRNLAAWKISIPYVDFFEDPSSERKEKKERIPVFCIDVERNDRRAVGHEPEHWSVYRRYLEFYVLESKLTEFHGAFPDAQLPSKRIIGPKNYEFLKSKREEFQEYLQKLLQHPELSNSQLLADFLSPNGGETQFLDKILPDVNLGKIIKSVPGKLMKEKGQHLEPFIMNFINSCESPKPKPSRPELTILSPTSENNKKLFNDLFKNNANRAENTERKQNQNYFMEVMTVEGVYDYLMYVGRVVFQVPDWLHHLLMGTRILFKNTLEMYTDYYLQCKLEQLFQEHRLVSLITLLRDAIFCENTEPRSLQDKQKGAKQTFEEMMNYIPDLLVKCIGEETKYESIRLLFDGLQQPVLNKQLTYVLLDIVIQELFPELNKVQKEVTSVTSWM
UniProt Q99717: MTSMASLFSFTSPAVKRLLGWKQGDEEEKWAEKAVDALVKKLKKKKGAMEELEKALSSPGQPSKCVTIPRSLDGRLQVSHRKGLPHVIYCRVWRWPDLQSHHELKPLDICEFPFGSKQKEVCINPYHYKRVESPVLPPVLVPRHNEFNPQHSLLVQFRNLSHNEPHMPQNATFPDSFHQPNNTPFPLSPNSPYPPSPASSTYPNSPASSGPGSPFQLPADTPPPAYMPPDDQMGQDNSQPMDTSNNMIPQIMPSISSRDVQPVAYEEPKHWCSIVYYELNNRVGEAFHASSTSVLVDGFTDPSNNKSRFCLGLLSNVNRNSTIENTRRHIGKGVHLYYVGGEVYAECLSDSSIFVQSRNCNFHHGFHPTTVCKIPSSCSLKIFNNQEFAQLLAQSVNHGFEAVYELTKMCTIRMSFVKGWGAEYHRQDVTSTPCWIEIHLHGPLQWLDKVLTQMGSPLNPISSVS
UniProt Q15506: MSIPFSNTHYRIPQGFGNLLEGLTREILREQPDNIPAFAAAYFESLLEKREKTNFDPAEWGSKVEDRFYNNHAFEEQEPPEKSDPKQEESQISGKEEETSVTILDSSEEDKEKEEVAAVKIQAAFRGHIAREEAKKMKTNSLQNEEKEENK
UniProt Q9UQE7: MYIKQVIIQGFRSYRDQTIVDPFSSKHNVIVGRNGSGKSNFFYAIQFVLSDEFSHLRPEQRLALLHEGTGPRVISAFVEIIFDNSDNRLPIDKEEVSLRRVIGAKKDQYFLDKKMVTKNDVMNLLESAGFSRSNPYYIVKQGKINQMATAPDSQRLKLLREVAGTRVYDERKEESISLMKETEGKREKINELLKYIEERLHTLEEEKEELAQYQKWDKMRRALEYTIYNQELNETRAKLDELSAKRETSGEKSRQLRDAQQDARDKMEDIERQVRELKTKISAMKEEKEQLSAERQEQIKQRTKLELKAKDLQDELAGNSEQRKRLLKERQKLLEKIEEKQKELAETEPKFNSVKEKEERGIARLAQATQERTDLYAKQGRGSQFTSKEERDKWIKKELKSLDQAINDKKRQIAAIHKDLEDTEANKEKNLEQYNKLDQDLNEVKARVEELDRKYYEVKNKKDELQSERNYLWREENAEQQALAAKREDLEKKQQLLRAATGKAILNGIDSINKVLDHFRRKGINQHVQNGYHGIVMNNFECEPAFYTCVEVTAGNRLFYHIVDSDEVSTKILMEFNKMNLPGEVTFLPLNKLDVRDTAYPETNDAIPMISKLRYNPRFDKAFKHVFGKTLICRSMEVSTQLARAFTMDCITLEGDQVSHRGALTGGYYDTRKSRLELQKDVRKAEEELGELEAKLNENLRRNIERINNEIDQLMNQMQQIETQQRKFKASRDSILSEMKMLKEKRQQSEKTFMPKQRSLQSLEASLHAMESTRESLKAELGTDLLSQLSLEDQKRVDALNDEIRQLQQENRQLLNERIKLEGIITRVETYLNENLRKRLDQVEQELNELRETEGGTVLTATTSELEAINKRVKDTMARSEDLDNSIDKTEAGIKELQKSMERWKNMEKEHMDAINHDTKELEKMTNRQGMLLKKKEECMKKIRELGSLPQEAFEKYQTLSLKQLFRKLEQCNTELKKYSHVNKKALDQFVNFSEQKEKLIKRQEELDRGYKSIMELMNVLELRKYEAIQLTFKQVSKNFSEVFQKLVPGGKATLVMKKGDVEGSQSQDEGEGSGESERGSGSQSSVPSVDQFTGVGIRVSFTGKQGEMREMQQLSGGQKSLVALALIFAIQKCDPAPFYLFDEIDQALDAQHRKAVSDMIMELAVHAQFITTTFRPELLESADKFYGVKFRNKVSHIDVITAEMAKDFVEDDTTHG
UniProt P09661: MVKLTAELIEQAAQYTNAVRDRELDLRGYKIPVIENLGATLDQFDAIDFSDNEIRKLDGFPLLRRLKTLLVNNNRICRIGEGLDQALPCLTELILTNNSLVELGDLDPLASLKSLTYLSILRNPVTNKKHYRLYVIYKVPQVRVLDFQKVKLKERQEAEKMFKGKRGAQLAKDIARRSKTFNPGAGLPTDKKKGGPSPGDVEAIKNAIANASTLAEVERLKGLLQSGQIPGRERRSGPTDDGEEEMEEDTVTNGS
UniProt P08621, whole entry, looked up: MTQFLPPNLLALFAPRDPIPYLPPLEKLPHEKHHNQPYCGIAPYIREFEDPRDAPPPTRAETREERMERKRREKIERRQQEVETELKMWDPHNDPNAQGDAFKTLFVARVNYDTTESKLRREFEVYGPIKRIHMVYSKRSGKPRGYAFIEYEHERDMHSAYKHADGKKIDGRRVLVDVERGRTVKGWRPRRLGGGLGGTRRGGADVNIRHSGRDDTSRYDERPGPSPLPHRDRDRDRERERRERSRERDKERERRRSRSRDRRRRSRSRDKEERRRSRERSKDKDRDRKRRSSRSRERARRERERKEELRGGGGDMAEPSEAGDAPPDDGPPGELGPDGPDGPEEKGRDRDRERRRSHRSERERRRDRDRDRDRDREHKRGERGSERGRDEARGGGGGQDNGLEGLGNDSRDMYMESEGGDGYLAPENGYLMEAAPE
UniProt Q13485: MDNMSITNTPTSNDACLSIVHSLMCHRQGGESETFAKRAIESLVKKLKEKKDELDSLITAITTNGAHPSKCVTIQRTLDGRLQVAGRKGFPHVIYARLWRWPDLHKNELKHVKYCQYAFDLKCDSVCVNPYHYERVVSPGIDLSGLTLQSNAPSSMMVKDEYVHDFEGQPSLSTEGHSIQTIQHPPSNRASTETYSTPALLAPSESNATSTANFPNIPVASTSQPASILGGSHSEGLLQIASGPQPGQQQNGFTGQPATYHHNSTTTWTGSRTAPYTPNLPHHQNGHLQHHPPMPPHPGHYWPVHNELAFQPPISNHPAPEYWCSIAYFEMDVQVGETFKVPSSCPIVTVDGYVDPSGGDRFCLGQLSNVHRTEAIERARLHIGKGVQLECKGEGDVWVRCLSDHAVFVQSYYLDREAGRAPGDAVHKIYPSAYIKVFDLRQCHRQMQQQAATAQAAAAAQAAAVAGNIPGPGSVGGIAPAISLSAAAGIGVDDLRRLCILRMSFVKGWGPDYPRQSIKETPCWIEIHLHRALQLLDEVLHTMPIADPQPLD
UniProt P62306, whole entry, looked up: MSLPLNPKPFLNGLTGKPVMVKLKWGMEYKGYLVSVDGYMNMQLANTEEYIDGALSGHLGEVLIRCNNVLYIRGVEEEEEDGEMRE
UniProt Q8NDV3: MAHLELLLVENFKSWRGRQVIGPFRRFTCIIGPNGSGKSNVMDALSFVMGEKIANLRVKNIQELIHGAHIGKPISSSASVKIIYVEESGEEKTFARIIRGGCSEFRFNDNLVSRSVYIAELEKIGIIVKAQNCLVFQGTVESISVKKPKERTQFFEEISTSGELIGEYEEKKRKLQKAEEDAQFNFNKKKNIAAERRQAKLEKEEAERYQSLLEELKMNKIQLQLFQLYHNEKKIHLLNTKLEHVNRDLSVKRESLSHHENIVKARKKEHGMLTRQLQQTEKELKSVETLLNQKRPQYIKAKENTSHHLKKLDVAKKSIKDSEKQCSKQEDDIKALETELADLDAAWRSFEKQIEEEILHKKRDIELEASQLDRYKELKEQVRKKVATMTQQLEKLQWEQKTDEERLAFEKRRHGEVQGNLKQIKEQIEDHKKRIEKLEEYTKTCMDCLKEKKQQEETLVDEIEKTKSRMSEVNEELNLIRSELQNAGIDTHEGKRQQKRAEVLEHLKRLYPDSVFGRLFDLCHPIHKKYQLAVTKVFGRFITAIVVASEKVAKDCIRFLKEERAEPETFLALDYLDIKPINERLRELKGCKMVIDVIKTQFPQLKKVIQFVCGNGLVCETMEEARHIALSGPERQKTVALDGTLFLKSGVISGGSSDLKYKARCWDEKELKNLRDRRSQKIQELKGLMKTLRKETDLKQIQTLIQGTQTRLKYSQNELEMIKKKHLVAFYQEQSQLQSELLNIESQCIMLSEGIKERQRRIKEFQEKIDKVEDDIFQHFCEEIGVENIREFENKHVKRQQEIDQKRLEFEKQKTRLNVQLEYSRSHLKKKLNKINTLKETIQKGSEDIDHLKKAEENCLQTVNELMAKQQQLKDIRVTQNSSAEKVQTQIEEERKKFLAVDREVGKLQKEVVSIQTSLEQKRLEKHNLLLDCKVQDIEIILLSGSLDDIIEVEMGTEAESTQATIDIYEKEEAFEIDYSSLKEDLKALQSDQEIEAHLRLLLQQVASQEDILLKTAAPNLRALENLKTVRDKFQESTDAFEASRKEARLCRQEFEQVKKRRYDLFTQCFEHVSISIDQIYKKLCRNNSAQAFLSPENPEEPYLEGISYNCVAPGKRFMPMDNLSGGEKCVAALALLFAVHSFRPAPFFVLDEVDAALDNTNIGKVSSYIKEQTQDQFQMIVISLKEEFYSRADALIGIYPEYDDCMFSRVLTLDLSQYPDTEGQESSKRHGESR
UniProt P04179: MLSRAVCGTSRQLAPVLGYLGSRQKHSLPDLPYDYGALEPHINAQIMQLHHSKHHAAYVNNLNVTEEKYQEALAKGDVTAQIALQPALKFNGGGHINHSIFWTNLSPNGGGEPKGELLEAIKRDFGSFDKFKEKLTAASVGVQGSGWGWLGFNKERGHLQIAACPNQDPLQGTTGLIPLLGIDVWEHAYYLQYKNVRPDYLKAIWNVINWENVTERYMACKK
UniProt Q8IYB5: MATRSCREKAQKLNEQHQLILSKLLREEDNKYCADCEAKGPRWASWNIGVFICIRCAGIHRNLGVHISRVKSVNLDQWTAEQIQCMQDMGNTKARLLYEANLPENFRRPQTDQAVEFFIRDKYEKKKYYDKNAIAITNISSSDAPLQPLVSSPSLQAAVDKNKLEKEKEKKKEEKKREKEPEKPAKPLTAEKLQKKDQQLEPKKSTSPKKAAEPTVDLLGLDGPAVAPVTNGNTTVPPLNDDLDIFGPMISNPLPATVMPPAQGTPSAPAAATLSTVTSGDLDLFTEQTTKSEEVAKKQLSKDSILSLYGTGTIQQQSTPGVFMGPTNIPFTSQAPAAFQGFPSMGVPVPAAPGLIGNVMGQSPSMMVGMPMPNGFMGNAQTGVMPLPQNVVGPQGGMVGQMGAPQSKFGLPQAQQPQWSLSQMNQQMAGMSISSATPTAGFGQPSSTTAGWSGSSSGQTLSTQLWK
UniProt Q15599: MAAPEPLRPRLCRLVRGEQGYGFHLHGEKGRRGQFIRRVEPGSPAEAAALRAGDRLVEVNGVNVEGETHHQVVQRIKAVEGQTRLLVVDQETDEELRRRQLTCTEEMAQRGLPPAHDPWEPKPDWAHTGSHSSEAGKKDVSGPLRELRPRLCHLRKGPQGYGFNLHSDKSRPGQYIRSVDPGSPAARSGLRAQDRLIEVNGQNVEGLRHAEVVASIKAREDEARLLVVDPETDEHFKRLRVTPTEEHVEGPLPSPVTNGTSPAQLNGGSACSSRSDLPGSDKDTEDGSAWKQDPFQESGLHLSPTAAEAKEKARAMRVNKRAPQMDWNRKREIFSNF

Experiments:
Assay in all cases: log2 fold change, soluble protein after heating vs DMSO (PISA); higher = thermal stabilisation; K562 cells, 10 uM, 30 min; active = over 0.2 and 3.5 SD of the protein, either way, in both replicates (recomputed)
IRAK-1-4 Inhibitor I = compound: C1COCCN1CCN2C3=CC=CC=C3N=C2NC(=O)C4=CC(=CC=C4)[N+](=O)[O-] [IRAK-1-4 Inhibitor I]
Outline: (§1)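 Quantification of soluble protein used TMTpro 16plex LC-MS/MS, with channel sums equalised. Samples were the supernatant after 21,000xg for 90 min of pooled aliquots from K562 cells (2×10^6 cells/mL) treated with 10 μM compound for 30 min, heated for 3 min over 48°C-58°C, and extracted in PBS with 0.5% NP-40 at 4°C. Values, from duplicates, describe thermal stability against control samples on a log2 fold-change scale.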

ibrutinib = compound: C=CC(=O)N1CCC[C@@H](n2nc(-c3ccc(Oc4ccccc4)cc3)c3c(N)ncnc32)C1 [ibrutinib]
Outline: as §1

[1] = compound: CC(=O)c1cnc2ccc(-c3cc(Cl)c(O)c(Cl)c3)nc2c1N[C@H]1CC[C@H](CN(C)C)CC1
Outline: as §1

ralimetinib = compound: CC(C)(C)Cn1c(N)nc2ccc(-c3[nH]c(C(C)(C)C)nc3-c3ccc(F)cc3)nc21 [ralimetinib]
Outline: as §1

[2] = compound: CC(C)(O)CC(=O)NCCn1ccc2ncnc(Nc3ccc(Oc4cccc(C(F)(F)F)c4)c(Cl)c3)c21
Outline: as §1

[3] = compound: CC(C)C1=C2N=C(C=C(N2N=C1)NCC3=CC=CC=C3)NCCCCCCN
Outline: as §1

[4] = compound: CC(C)C[C@@H](C=O)NC(=O)[C@H](CC(C)C)NC(=O)[C@H](CC(C)C)NC(=O)OCc1ccccc1
Outline: as §1

pinometostat = compound: CC(C)N(C[C@H]1O[C@@H](n2cnc3c(N)ncnc32)[C@H](O)[C@@H]1O)[C@H]1C[C@@H](CCc2nc3cc(C(C)(C)C)ccc3[nH]2)C1 [pinometostat]
Outline: as §1

[5] = compound: CC1=C(C(CC(=O)N1)C2=CC=C(C=C2)C(F)(F)F)C(=O)NC3=C(C=C4C(=C3)C=NN4)F
Outline: as §1

[6] = compound: CC1=C(C2=C(C=C1)C(=O)C3=CC=CC=C3N2CCCN)C
Outline: as §1

Measured: log2 fold change

SLC9A3R1 (UniProt O14745)
inactive: IRAK-1-4 Inhibitor I 0.071 | ibrutinib 0.024 | [1] 0.018 | ralimetinib -0.015 | [2] -0.012 | [3] 0.05 | [4] 0.014 | pinometostat -0.073 | [5] 0.022 | [6] -0.011

SMARCC2 (UniProt Q8TAQ2)
inactive: IRAK-1-4 Inhibitor I 0.064 | ibrutinib 0.024 | [1] -0.116 | ralimetinib 0.072 | [2] -0.092 | [3] -0.149 | [4] 0.028 | pinometostat -0.126 | [5] 0.05 | [6] 0.02

SMG5 (UniProt Q9UPR3)
inactive: IRAK-1-4 Inhibitor I -0.007 | ibrutinib -0.067 | [1] 0.195 | ralimetinib 0.05 | [2] 0.07 | [3] -0.081 | [4] 0.034 | pinometostat 0.076 | [5] 0.037 | [6] 0.159

SNRPE (UniProt P62304)
inactive: IRAK-1-4 Inhibitor I 0.028 | ibrutinib 0.013 | [1] 0.022 | ralimetinib -0.032 | [2] 0.071 | [3] 0.192 | [4] -0.023 | pinometostat -0.011 | [5] 0.007 | [6] 0.046

SNAPIN (UniProt O95295)
inactive: IRAK-1-4 Inhibitor I 0.023 | ibrutinib -0.008 | [1] 0.011 | ralimetinib -0.07 | [2] -0.095 | [3] 0.013 | [4] -0.029 | pinometostat -0.063 | [5] 0.025 | [6] 0.151

SNRPC (UniProt P09234)
inactive: IRAK-1-4 Inhibitor I 0.001 | ibrutinib 0.007 | [1] 0.003 | ralimetinib -0.076 | [2] 0.015 | [3] 0.162 | [4] 0.015 | pinometostat -0.064 | [5] -0.004 | [6] 0.12

SNCG (UniProt O76070)
inactive: IRAK-1-4 Inhibitor I 0.043 | ibrutinib 0.017 | [1] 0.038 | ralimetinib -0.066 | [2] -0.009 | [3] 0.079 | [4] 0.022 | pinometostat -0.034 | [5] 0.008 | [6] -0.012

SNX14 (UniProt Q9Y5W7)
inactive: IRAK-1-4 Inhibitor I 0.077 | ibrutinib -0.099 | [1] -0.156 | ralimetinib -0.049 | [2] -0.059 | [3] -0.042 | [4] -0.025 | pinometostat 0.016 | [5] 0.049 | [6] 0.073

SMAD5 (UniProt Q99717)
inactive: IRAK-1-4 Inhibitor I -0.059 | ibrutinib -0.042 | [1] 0.021 | ralimetinib 0.129 | [2] -0.109 | [3] 0.184 | [4] 0.02 | pinometostat 0.094 | [5] -0.131 | [6] 0.096

SPAG7 (UniProt O75391)
inactive: IRAK-1-4 Inhibitor I 0.068 | ibrutinib 0.003 | [1] 0.03 | ralimetinib -0.018 | [2] -0.005 | [3] 0.049 | [4] 0.028 | pinometostat -0.037 | [5] 0.023 | [6] -0.033

SPA17 (UniProt Q15506)
inactive: IRAK-1-4 Inhibitor I 0.079 | ibrutinib -0.012 | [1] 0.044 | ralimetinib 0.005 | [2] 0.055 | [3] 0.05 | [4] 0.014 | pinometostat -0.07 | [5] 0.039 | [6] -0.056

SMU1 (UniProt Q2TAY7)
inactive: IRAK-1-4 Inhibitor I 0.013 | ibrutinib -0.065 | [1] -0.017 | ralimetinib 0.007 | [2] -0.003 | [3] 0.021 | [4] 0 | pinometostat 0.022 | [5] 0 | [6] 0.047

SMC3 (UniProt Q9UQE7)
inactive: IRAK-1-4 Inhibitor I -0.022 | ibrutinib -0.035 | [1] -0.166 | ralimetinib -0.052 | [2] -0.043 | [3] 0.027 | [4] -0.009 | pinometostat -0.004 | [5] -0.009 | [6] -0.096

SNRPG (UniProt P62308)
inactive: IRAK-1-4 Inhibitor I 0.008 | ibrutinib 0.031 | [1] 0.084 | ralimetinib 0.021 | [2] 0.042 | [3] 0.175 | [4] 0.029 | pinometostat 0.012 | [5] -0.018 | [6] 0.063

SNRPA1 (UniProt P09661)
inactive: IRAK-1-4 Inhibitor I 0.051 | ibrutinib -0.024 | [1] 0.111 | ralimetinib 0.066 | [2] 0.101 | [3] 0.203 | [4] -0.103 | pinometostat -0.018 | [5] 0.007 | [6] 0.063

SMARCA4 (UniProt P51532)
inactive: IRAK-1-4 Inhibitor I -0.155 | ibrutinib -0.136 | [1] -0.056 | ralimetinib 0.255 | [2] 0.027 | [3] -0.397 | [4] 0.16 | pinometostat 0.193

SNRNP70 (UniProt P08621)
inactive: IRAK-1-4 Inhibitor I -0.076 | ibrutinib 0.04 | [1] -0.025 | ralimetinib 0.043 | [2] 0.122 | [3] 0.308 | [4] 0.089 | pinometostat 0.177 | [5] -0.017 | [6] 0.348

SMAD4 (UniProt Q13485)
inactive: IRAK-1-4 Inhibitor I 0.072 | ibrutinib -0.039 | [1] -0.017 | ralimetinib 0.011 | [2] -0.016 | [3] 0.084 | [4] 0.089 | pinometostat -0.041 | [5] 0.013 | [6] 0.071

SNRPF (UniProt P62306)
inactive: IRAK-1-4 Inhibitor I 0.06 | ibrutinib 0.136 | [1] 0.056 | ralimetinib -0.011 | [2] -0.04 | [3] 0.197 | [4] 0.004 | pinometostat -0.012 | [5] 0.269 | [6] -0.077

SMN1 (UniProt Q16637)
inactive: IRAK-1-4 Inhibitor I -0.17 | ibrutinib 0.037 | [1] -0.121 | ralimetinib 0.15 | [2] -0.015 | [3] -0.298 | [4] 0.048 | pinometostat 0.267 | [5] -0.044 | [6] -0.282

SMC1B isoform 3 (UniProt Q8NDV3)
inactive: IRAK-1-4 Inhibitor I 0.028 | ibrutinib 0.138 | [1] -0.076 | ralimetinib -0.152 | [2] -0.029 | [3] 0.023 | [4] 0.008 | pinometostat -0.053 | [5] 0.016 | [6] -0.082

SOD2 (UniProt P04179)
inactive: IRAK-1-4 Inhibitor I 0.041 | ibrutinib -0.01 | [1] 0.041 | ralimetinib -0.026 | [2] 0.191 | [3] 0.042 | [4] -0.054 | pinometostat -0.14 | [5] 0.024 | [6] -0.016

SNRNP200 (UniProt O75643)
inactive: IRAK-1-4 Inhibitor I 0.046 | ibrutinib -0.005 | [1] 0.068 | ralimetinib 0.007 | [2] 0.038 | [3] 0.156 | [4] 0.069 | pinometostat 0.071 | [5] -0.034 | [6] 0.075

Fetched one by one from the list above (two):
SNRNP200 (UniProt O75643)
inactive: IRAK-1-4 Inhibitor I 0.046 | ibrutinib -0.005 | [1] 0.068 | ralimetinib 0.007 | [2] 0.038 | [3] 0.156 | [4] 0.069 | pinometostat 0.071 | [5] -0.034 | [6] 0.075

SNRPF (UniProt P62306)
inactive: IRAK-1-4 Inhibitor I 0.06 | ibrutinib 0.136 | [1] 0.056 | ralimetinib -0.011 | [2] -0.04 | [3] 0.197 | [4] 0.004 | pinometostat -0.012 | [5] 0.269 | [6] -0.077

Next entries follow.

SMAP1 isoform 2 (UniProt Q8IYB5)
inactive: IRAK-1-4 Inhibitor I 0.005 | ibrutinib -0.031 | [1] 0.019 | ralimetinib 0.001 | [2] -0.028 | [3] 0.083 | [4] 0.014 | pinometostat -0.085 | [5] -0.014 | [6] 0.026

SLC9A3R2 (UniProt Q15599)
inactive: IRAK-1-4 Inhibitor I 0.053 | ibrutinib 0.064 | [1] -0.043 | ralimetinib -0.032 | [2] 0.011 | [3] 0.053 | [4] -0.004 | pinometostat 0.035 | [5] 0.023 | [6] 0.006

SNAP91 (UniProt O60641)
inactive: IRAK-1-4 Inhibitor I 0.069 | ibrutinib 0.082 | [1] -0.009 | ralimetinib 0.016 | [2] -0.049 | [3] 0.058 | [4] 0.015 | pinometostat -0.073 | [5] -0.063 | [6] 0.026

SNRPD1 (UniProt P62314)
inactive: IRAK-1-4 Inhibitor I 0.014 | ibrutinib 0 | [1] 0.017 | ralimetinib -0.103 | [2] 0.036 | [3] 0.18 | [4] 0.041 | pinometostat 0.002 | [5] -0.027 | [6] 0.055

SLMAP (UniProt Q14BN4)
inactive: IRAK-1-4 Inhibitor I -0.063 | ibrutinib -0.058 | [1] -0.031 | ralimetinib 0.032 | [2] -0.004 | [3] -0.058 | [4] 0.062 | pinometostat 0.045 | [5] 0.009 | [6] 0.035

SNRPD2 (UniProt P62316)
inactive: IRAK-1-4 Inhibitor I 0.02 | ibrutinib -0.01 | [1] 0.081 | ralimetinib -0.015 | [2] 0.089 | [3] 0.184 | [4] 0.002 | pinometostat -0.023 | [5] -0.004 | [6] 0.017

SNF8 (UniProt Q96H20)
inactive: IRAK-1-4 Inhibitor I 0.039 | ibrutinib 0.026 | [1] -0.032 | ralimetinib -0.021 | [2] -0.023 | [3] 0.022 | [4] -0.018 | pinometostat -0.029 | [5] 0.04 | [6] 0.02
